Drawing on publication doi:10.1101/329136, this text covers binding for five molecules.

Chains of the proteins cited; added tags and fusions are not shown. Residues count along the entry.
IpaA 483-633 containing all three VBS1-3 (A483) (P18010, residues 483-633): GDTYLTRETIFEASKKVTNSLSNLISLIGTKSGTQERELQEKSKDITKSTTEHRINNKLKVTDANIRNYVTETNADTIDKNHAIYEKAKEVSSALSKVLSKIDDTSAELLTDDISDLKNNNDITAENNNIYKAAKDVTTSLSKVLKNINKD
IpaA 524-633 containing only IpaA VBS1-2 (A524) (P18010, residues 524-633): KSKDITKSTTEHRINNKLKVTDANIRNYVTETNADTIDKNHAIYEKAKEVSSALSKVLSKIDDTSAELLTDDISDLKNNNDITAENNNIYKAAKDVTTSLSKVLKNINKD
UniProt P18206, residues 1-258: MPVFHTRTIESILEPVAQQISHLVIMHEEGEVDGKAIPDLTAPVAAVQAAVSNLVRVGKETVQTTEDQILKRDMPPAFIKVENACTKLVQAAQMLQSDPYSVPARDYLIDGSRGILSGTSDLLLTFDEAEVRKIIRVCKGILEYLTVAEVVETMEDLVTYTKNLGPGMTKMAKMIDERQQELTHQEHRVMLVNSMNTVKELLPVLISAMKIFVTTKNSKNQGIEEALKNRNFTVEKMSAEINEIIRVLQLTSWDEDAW

These are yes or no findings as the source states them, for the method shown. Some entries that bind do so weakly or less than the wild type.

The target of test [1] is IpaA 524-633 containing only IpaA VBS1-2 (A524) (Shigella flexneri) (UniProt P18010). Put plainly: SEC-MALS. Background: In gel filtration, larger molecules generally elute earlier.
Test [2] concerns the target IpaA 483-633 containing all three VBS1-3 (A483) (Shigella flexneri) (UniProt P18010). Kind of test: SEC-MALS.
The target of a further test is vinculin D1 domain (vD1) (UniProt P18206). Put plainly: native gel or EMSA.

On to “IpaA 524-633 containing only IpaA VBS1-2 (A524) (from UniProt P18010 524-633) (domain or fragment)”, for which the binding result in test [1] was “no binding (tested: 20 μM)”.
On to “IpaA 483-633 containing all three VBS1-3 (A483) (from UniProt P18010 483-633) (domain or fragment)”, for which the binding entry in test [2] was “no binding (tested: 20 μM)”.
Regarding TRETIFEASKKVTNSLSNLISLIGT [IpaA VTBS peptide (488-512)], the binding result in the test with vinculin D1 domain (vD1) is “binds”.
For TRETIFEASKEVTNSLSNLISLIGT [IpaA VTBS K498E peptide], the binding entry with vinculin D1 domain (vD1) is recorded as “binds”.
Take TRETIFEKSKKVTNSLSNLISLIGT [IpaA VTBS A495K peptide]: in the test with vinculin D1 domain (vD1), the binding result was “binds”.
